Data from PMC3402478.
Construct, isoform or probe ends are uncertain for at least one entry. For some of these results: Negatives hold for the conditions tested. For some of these results: A weaker result is weaker than the reference pair of the same experiment. For some of these results: Where cells or extracts were used, other partners may take part. For some of these results: At least one verdict rests on a figure or table, not on a statement of the authors.

Protein sequences, listed by entry. Tags and fused reporters are not part of them. Lines headed by an entry give the natural chain unless they say otherwise; changes in a name come on top. Residues count along the entry.
UniProt P09629, 1-209, stated change not applied: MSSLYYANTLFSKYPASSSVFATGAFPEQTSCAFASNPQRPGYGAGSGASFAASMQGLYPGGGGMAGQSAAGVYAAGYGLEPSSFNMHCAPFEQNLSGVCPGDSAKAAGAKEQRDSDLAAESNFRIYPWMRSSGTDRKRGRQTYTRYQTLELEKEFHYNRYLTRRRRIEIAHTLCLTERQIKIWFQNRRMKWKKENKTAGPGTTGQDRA
UniProt P49639: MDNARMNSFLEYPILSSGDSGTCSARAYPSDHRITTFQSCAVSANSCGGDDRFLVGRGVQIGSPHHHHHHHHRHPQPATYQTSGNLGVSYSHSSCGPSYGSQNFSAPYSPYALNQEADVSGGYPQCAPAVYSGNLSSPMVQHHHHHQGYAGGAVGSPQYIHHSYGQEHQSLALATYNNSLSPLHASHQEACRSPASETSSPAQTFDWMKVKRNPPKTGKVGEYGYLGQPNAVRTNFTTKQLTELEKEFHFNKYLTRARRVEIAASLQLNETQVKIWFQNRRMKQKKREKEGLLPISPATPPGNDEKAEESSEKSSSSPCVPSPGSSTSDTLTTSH
UniProt P20719: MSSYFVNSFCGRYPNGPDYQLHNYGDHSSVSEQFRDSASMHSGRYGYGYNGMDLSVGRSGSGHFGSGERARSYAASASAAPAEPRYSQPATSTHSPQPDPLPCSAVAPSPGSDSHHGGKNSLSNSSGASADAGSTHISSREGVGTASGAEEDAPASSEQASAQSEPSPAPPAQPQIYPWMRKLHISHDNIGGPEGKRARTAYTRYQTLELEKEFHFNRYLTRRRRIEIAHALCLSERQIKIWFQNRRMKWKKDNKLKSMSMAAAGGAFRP
UniProt P31268: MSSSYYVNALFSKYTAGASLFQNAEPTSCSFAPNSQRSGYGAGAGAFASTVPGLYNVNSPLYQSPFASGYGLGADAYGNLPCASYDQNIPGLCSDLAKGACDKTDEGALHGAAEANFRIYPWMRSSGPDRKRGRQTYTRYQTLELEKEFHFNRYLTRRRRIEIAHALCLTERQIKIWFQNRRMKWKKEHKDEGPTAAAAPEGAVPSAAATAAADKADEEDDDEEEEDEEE
UniProt P17509, whole entry K221E: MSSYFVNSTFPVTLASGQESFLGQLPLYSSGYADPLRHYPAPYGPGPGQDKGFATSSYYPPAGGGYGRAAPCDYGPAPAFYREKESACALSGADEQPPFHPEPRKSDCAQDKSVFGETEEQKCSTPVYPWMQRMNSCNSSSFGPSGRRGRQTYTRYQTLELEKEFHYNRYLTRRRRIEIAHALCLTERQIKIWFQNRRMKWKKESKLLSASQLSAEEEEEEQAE
UniProt P09630: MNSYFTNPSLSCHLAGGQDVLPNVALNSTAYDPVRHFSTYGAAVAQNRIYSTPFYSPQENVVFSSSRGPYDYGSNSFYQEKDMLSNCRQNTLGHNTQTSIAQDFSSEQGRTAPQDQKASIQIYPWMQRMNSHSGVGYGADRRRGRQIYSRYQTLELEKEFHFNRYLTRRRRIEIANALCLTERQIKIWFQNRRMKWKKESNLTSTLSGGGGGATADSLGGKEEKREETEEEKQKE

Tests used:
GST-HOXB7 = GST-HOXB7 (UniProt P09629); assay: EMSA; settings: + PARP-1 and NAD+ (poly(ADP-ribosyl)ation); EMSA: 50 mM Tris-HCl pH 7.5, 50 mM NaCl, 1 mM MgCl2, 0.5 mM DTT, 4% glycerol, 0.5 mM EDTA, 0.25 mg/ml poly(dI-dC), 20 min, gel at room temperature; recombinant protein; protein details: GST; label: 32P
GST = assay: EMSA; settings: EMSA: 50 mM Tris-HCl pH 7.5, 50 mM NaCl, 1 mM MgCl2, 0.5 mM DTT, 4% glycerol, 0.5 mM EDTA, 0.25 mg/ml poly(dI-dC), 20 min, gel at room temperature; recombinant protein; label: 32P
FLAG-HOXA1 = FLAG-HOXA1 (UniProt P49639); assay: pull-down (ONP); settings: with or without PARP-1, not suppressed; ONP: 60 mM KCl, 12 mM HEPES pH 7.9, 4 mM Tris-HCl, 5% glycerol, 0.5 mM EDTA, 1 mM DTT, 4 C, 3 h; protein in a lysate after overexpression; protein details: N-terminal FLAG; label: 5' biotin on S1
FLAG-HOXA5 = FLAG-HOXA5 (UniProt P20719); assay: pull-down (ONP); settings: with or without PARP-1, not suppressed; ONP: 60 mM KCl, 12 mM HEPES pH 7.9, 4 mM Tris-HCl, 5% glycerol, 0.5 mM EDTA, 1 mM DTT, 4 C, 3 h; protein in a lysate after overexpression; protein details: N-terminal FLAG; label: 5' biotin on S1
FLAG-HOXA7 = FLAG-HOXA7 (UniProt P31268); assay: pull-down (ONP); settings: ONP: 60 mM KCl, 12 mM HEPES pH 7.9, 4 mM Tris-HCl, 5% glycerol, 0.5 mM EDTA, 1 mM DTT, 4 C, 3 h, protein in a lysate after overexpression, protein details: N-terminal FLAG, label: 5' biotin on S1
FLAG-HOXB6 = FLAG-HOXB6 (UniProt P17509); assay: pull-down (ONP); settings: with or without PARP-1, not suppressed; ONP: 60 mM KCl, 12 mM HEPES pH 7.9, 4 mM Tris-HCl, 5% glycerol, 0.5 mM EDTA, 1 mM DTT, 4 C, 3 h; protein in a lysate after overexpression; protein details: N-terminal FLAG; label: 5' biotin on S1
FLAG-HOXB6 K221E = FLAG-HOXB6 K221E (UniProt P17509); assay: pull-down (ONP); settings: ONP: 60 mM KCl, 12 mM HEPES pH 7.9, 4 mM Tris-HCl, 5% glycerol, 0.5 mM EDTA, 1 mM DTT, 4 C, 3 h, protein in a lysate after overexpression, protein details: FLAG, label: 5' biotin on S1
FLAG-HOXB7 = FLAG-HOXB7 (UniProt P09629); assay: pull-down (ONP); settings: ONP: 60 mM KCl, 12 mM HEPES pH 7.9, 4 mM Tris-HCl, 5% glycerol, 0.5 mM EDTA, 1 mM DTT, 4 C, 3 h, protein in a lysate after overexpression, protein details: FLAG, label: 5' biotin on S1
FLAG-HOXC6 = FLAG-HOXC6 (UniProt P09630); assay: pull-down (ONP); settings: with or without PARP-1, not suppressed; ONP: 60 mM KCl, 12 mM HEPES pH 7.9, 4 mM Tris-HCl, 5% glycerol, 0.5 mM EDTA, 1 mM DTT, 4 C, 3 h; protein in a lysate after overexpression; protein details: N-terminal FLAG; label: 5' biotin on S1
HOXB7deltaGlu = HOXB7deltaGlu (UniProt P09629); assay: pull-down (ONP); settings: ONP: 60 mM KCl, 12 mM HEPES pH 7.9, 4 mM Tris-HCl, 5% glycerol, 0.5 mM EDTA, 1 mM DTT, 4 C, 3 h, protein in a lysate after overexpression, protein details: FLAG, label: 5' biotin on S1

Sequence	binding result (GST-HOXB7)	binding result (GST)	binding result (FLAG-HOXA1)	binding result (FLAG-HOXA5)	binding result (FLAG-HOXA7; PARP-1 overexpressed + DPQ, partially restored)	binding result (FLAG-HOXA7; PARP-1 overexpressed)	binding result (FLAG-HOXA7; no PARP-1 overexpression)	binding result (FLAG-HOXB6)	binding result (FLAG-HOXB6 K221E; PARP-1 overexpressed)	binding result (FLAG-HOXB6 K221E; no PARP-1 overexpression)	binding result (FLAG-HOXB7; PARP-1 E988A overexpressed, no suppression)	binding result (FLAG-HOXB7; PARP-1 deltaZF1 overexpressed, no suppression)	binding result (FLAG-HOXB7; PARP-1 overexpressed + DPQ, binding restored)	binding result (FLAG-HOXB7; PARP-1 overexpressed + PARG, binding restored)	binding result (FLAG-HOXB7; PARP-1 overexpressed)	binding result (FLAG-HOXB7; no PARP-1 overexpression, DPQ increases binding)	binding result (FLAG-HOXC6)	binding result (HOXB7deltaGlu; PARP-1 overexpressed, suppression abolished)	binding result (HOXB7deltaGlu; no PARP-1 overexpression)
AAATATCAATTAAATCTTAATTATAA (double strand) [HBS EMSA probe]	binds more weakly	no binding																	
AAATATCAATTAAATCTTAATTATAA (double strand) [biotin-HBS]			binds	binds	binds	binds more weakly	binds	binds	binds more weakly	binds	binds	binds	binds	binds	binds more weakly	binds	binds	binds	binds
